Some compounds share one wording; it may come from a single statement.
These compounds were tested on MDCKII-hABCG2 and MDCKII-WT cells (assay: Autofluorescence (modified Hoechst assay without dye)). Conditions: 0.5 and 1.0 µM, 4 h, no Hoechst dye; Ko143 1 µM.
Assay type: cell-based, canine
With `COc1ccc2c3c([nH]c2c1)[C@H](CC(C)C)N1C(=O)[C@H](CCC(=O)OC(C)(C)C)NC(=O)[C@@H]1C3` [Ko143, (3S,6S,12aS)-1,2,3,4,6,7,12,12a-octahydro-9-methoxy-6-(2-methylpropyl)-1,4-dioxopyrazino[1′,2′:1,6]pyrido[3,4-b]indole-3-propanoic acid 1,1-dimethylethyl ester, reference compound] the “autofluorescence (total intracellular fluorescence vs solvent control)” value was “emitted no fluorescence itself”.
For “N-(closo-1,7-dicarbadodecaboran(12)-9-yl)-2-(3,4,5-trimethoxyphenyl)-quinazolin-4-amine [QCd]”, the “autofluorescence (total intracellular fluorescence vs solvent control)” value was “dose-dependent significant increase in the total intracellular fluorescence”.
With “N-(closo-1,7-dicarbadodecaboran(12)-9-yl)-2-(3,4-dimethoxyphenyl)-quinazolin-4-amine [QCc]” the “autofluorescence (total intracellular fluorescence vs solvent control)” value was “enhanced the intracellular fluorescence in a significant manner”.
With “N-(closo-1,7-dicarbadodecaboran(12)-9-yl)-2-(4-methoxyphenyl)-quinazolin-4-amine [QCb]” the “autofluorescence (total intracellular fluorescence vs solvent control)” value was “dose-dependent significant increase in the total intracellular fluorescence”.
In the case of “N-(closo-1,7-dicarbadodecaboran(12)-9-yl)-6,7-dimethoxy-2-(3,4,5-trimethoxyphenyl)-quinazolin-4-amine [DMQCd]”, the “autofluorescence (total intracellular fluorescence vs solvent control)” value is reported as “dose-dependent significant increase in the total intracellular fluorescence”.
“N-(closo-1,7-dicarbadodecaboran(12)-9-yl)-6,7-dimethoxy-2-(3,4-dimethoxy-phenyl)-quinazolin-4-amine [DMQCc]” was tested, and the “autofluorescence (total intracellular fluorescence vs solvent control)” value was “dose-dependent significant increase in the total intracellular fluorescence”.
“N-(closo-1,7-dicarbadodecaboran(12)-9-yl)-6,7-dimethoxy-2-(4-methoxy-phenyl)quinazolin-4-amine [DMQCb]” was tested, and the “autofluorescence (total intracellular fluorescence vs solvent control)” value was “dose-dependent significant increase in the total intracellular fluorescence”.
With “N-(closo-1,7-dicarbadodecaboran(12)-9-yl)-6,7-dimethoxy-2-phenyl-quinazolin-4-amine [DMQCa]” the “autofluorescence (total intracellular fluorescence vs solvent control)” value was “dose-dependent significant increase in the total intracellular fluorescence”.

Reference: article PMC9866861, “The More the Better—Investigation of Polymethoxylated N-Carboranyl Quinazolines as Novel Hybrid Breast Cancer Resistance Protein Inhibitors” (Pharmaceutics, 2023)
